Source: ChEMBL document CHEMBL3988442, “University of Dundee, Small-Polar-MMV Screening Library” (2021).

Sequences of proteins named here, by UniProt entry; tags and fusion partners are left off. Residues count along the entry.
UniProt P9WPC5, whole entry: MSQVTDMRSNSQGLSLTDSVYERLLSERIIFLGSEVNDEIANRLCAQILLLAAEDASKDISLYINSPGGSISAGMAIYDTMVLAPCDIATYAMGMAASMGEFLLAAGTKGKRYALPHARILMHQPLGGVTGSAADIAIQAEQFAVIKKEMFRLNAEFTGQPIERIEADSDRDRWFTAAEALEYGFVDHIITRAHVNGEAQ
UniProt P9WPC3, whole entry partner: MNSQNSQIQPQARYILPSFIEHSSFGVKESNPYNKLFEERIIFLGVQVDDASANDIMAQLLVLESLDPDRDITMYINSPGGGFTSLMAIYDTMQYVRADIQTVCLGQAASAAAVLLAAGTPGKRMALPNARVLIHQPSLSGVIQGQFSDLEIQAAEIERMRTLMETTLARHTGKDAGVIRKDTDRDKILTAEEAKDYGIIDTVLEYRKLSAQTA
UniProt A4I591, 1-473: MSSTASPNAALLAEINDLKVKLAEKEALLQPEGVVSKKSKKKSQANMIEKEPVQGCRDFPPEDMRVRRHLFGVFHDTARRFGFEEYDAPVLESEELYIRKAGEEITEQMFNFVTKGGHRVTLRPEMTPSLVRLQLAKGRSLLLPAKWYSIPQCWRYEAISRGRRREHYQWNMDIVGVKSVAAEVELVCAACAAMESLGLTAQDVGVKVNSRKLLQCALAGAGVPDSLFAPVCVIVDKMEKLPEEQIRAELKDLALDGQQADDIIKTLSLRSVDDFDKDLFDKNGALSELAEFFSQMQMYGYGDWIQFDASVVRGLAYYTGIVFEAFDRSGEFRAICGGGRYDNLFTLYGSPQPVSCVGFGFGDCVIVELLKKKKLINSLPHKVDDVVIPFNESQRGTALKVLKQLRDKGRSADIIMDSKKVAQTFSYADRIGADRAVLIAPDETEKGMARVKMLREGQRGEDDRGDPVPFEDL

A: 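ClpP1P2, Mycobacterium tuberculosis (UniProt P9WPC5 and UniProt P9WPC3). Protease assay of ClpP1P2, read by the AMC dye that it sets free. Compounds at 50 µM. Higher reads as stronger inhibition, judged from the few compounds that gave an IC50. Most other retested compounds had strongly negative values. Of about 69,000 compounds tested this way, about 10 (0.015%) reached 50% or more in at least one test.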
B: 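Histidine-tRNA ligase, Leishmania infantum (UniProt A4I591). Enzyme assay of histidyl-tRNA synthetase; the read-out is not stated. Compounds at 30 µM. Direction is inferred from retests: higher values go with stronger inhibition. The assay is labelled LdHisRS but filed under L. infantum. Size under these conditions: about 69,000 compounds, about 410 of them at 50% or above in at least one test.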

Results are given as percent effect. The record does not define 0% and 100%; most values in the screen are far below 50% and negative numbers occur (in some assays of this library far below -100). Compounds were drawn at random from those tested, without regard to their results.

COCC(=O)N1CCN(Cc2nnc(C(C)(C)C)o2)CC1 read A: -6.973%; B: 17.81%.
CN1CCN(Cc2cn3c(n2)CN(Cc2ccncc2)CC3)CC1 read A: 1.815%; B: -7.921%.
CCn1nc(C)c(C(C)Nc2cc(C3CCNCC3)nc(C)n2)c1C (centres unmarked) read A: 14.81%; B: 13.25%.
Cc1cc(NC(=O)CN2CCc3cnc(C(C)C)nc3C2)on1 read A: -9.083%; B: 10.71%.
O=C1N[C@@H]2CCN(C(=O)N3CCOCC3)[C@@H]2C(=O)N1Cc1ccccc1 read A: -6.877%; B: 27.78%.
CCn1cnnc1CNC(=O)N1CCC(CN2CCCCCC2)CC1 read A: -6.305%; B: 13.04%.
CCc1nncn1CCNC(=O)Nc1ccc(OC)c(C)c1 read A: 5.41%; B: 22.81%.
COc1ccc(C(=O)N2CCC(Oc3ccccc3C)(C(=O)O)CC2)o1 read A: -17.33%; B: -2.083%.
Cc1ccc(C(=O)NCC(O)CN2CCCC2=O)cc1Cl (centres unmarked) read A: 1.475%; B: 12.7%.
Cn1cc(S(=O)(=O)NCC(C)(O)c2ccsc2)cn1 (centres unmarked) read A: 13.99%; B: 3.191%.
COc1cccc(CNC(=O)NC2(c3nc(C)no3)CCCCC2)c1 read A: -5.427%; B: 10.43%.
O=C(CCc1nccs1)N1CCCC(n2cccn2)C1 (centres unmarked) read A: 13.71%; B: 16.07%.
O=C(c1cc[nH]n1)N1CCc2ccc(S(=O)(=O)N3CCOCC3)cc2C1 read A: 1.551%; B: 16.33%.
O=S(=O)(NCC1CCOc2ccccc2C1)N1CCOCC1 (centres unmarked) read A: -2.014%; B: 17.92%.
Cc1nc(CN2CCC(C(=O)O)(n3ccc(C(C)C)n3)CC2)co1 read A: -6.616%; B: 20.21%.
COc1ccc(CN(C)Cc2nc3c(cnn3C)c(=O)[nH]2)cc1OC read A: 5.813%; B: 10.81%.
Cc1ccc(-c2cn(C3CCN(C(=O)[C@H]4CCCO4)CC3)nn2)cc1 read A: -7.119%; B: 10.85%.
COc1ccc(CN2CCn3cc(Cn4cccn4)nc3C2)cc1 read A: -25.86%; B: 12.62%.
NC(=O)c1ccc(NC2CCOC3(CCCC3)C2)nn1 (centres unmarked) read A: -1.782%; B: 0%.
CN(C)CC1(O)CCCN(C(=O)Cn2nc3ccccc3n2)CC1 (centres unmarked) read A: 5.145%; B: 11.76%.
Cn1c(=O)c2c(n3ncnc13)NC(=O)CC2c1ccc(F)cc1 (centres unmarked) read A: -5.052%; B: 6.897%.
O=C(C1CCCc2[nH]ncc21)N1CCCC2(C1)OCCO2 (centres unmarked) read A: -2.895%; B: 9.091%.
Cc1cc(C)c(CNC(=O)NCCNc2ncccn2)c(=O)[nH]1 read A: 0.1325%; B: 15.38%.
c1ccc(-n2nnnc2NCc2ccc3c(c2)OCO3)cc1 read A: 11.12%; B: 15%.
CC(C)Cc1nc(CSCC(=O)N2CCC(C)CC2)no1 read A: -2.821%; B: 8.219%.
OCCN1CCOC2(CCCN(c3ncc(F)cn3)C2)C1 (centres unmarked) read A: 6.881%; B: 16%.
O=C(NCc1nc2ccccc2[nH]1)c1cc2n(n1)CCCO2 read A: 0.4429%; B: 15.65%.

Some entries from above, unchanged:

compound,A,B
Cc1nc(CN2CCC(C(=O)O)(n3ccc(C(C)C)n3)CC2)co1,-6.616%,20.21%
COc1ccc(C(=O)N2CCC(Oc3ccccc3C)(C(=O)O)CC2)o1,-17.33%,-2.083%